This experiment has as its target membrane-bound IGHV3-21/IGLV3-21^R110 BCR expressed on triple knockout (TKO) cells (human) (UniProt P01871). In words: FACS binding assay on BCR-expressing TKO cells, with fluorescently labeled anti-mouse IgG. On the technique in general: Flow cytometry measures light scatter and fluorescence of single cells or particles in a stream.

Protein sequences, listed by entry. Tags and fused reporters are not part of them. Lines headed by an entry give the natural chain unless they say otherwise; changes in a name come on top.
UniProt P01871: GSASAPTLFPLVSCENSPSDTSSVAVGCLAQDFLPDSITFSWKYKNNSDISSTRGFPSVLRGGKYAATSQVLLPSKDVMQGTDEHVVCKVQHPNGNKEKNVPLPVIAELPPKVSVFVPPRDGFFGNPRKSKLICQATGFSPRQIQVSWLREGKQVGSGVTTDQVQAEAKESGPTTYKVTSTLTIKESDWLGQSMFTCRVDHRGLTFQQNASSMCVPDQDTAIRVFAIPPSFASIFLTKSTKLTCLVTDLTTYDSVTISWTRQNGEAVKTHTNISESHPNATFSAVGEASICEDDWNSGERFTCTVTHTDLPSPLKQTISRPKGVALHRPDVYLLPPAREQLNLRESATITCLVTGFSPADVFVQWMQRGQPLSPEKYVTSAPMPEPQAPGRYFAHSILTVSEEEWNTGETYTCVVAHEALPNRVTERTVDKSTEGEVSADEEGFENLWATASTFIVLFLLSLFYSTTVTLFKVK

Results are given in words; binding and its absence hold for the method and conditions named. Some binding calls cover weakened binding; strength is not graded here.

For one molecule, binding results are on record in patent publication US20260035459A1, “HUMANIZED CHIMERIC ANTIGEN RECEPTORS TARGETING THE B-CELL RECEPTOR OF CHRONIC LYMPHOCYTIC LEUKEMIA AND USES THEREOF” (AVA LIFESCIENCE GMBH, priority 2022, published 2026).

B1: murine monoclonal antibody mAb01-01 (antibody, V domains shown)
VH: QVQLQQSGPGLVQPSQSLSITCTVSGFSLTSYGIHWVRQSPGKGLEWLGVIWRGGGTDSNAAFMSRLSITKDNSKSQVFFKMNSLQADDTAIYYCARSRYDEEESMNYWGQGTSVTVSS
VL: QIVLTQSPASLSASVGETVTITCRASGNIHSYLAWYQQKQGKSPQLLVYNAKTLADGVPSRFSGSGSGTQYSLKINSLQPEDFGSYYCQHFWNTPPTFGAGTKLELK
As to B1, the binding result is on record as “binds”.
